The assay addresses T1, Neuronal cell adhesion molecule 2, isoform NCAM2.1 (mouse (endogenous in cerebral cortex)) (UniProt O35136).
T1 sequence: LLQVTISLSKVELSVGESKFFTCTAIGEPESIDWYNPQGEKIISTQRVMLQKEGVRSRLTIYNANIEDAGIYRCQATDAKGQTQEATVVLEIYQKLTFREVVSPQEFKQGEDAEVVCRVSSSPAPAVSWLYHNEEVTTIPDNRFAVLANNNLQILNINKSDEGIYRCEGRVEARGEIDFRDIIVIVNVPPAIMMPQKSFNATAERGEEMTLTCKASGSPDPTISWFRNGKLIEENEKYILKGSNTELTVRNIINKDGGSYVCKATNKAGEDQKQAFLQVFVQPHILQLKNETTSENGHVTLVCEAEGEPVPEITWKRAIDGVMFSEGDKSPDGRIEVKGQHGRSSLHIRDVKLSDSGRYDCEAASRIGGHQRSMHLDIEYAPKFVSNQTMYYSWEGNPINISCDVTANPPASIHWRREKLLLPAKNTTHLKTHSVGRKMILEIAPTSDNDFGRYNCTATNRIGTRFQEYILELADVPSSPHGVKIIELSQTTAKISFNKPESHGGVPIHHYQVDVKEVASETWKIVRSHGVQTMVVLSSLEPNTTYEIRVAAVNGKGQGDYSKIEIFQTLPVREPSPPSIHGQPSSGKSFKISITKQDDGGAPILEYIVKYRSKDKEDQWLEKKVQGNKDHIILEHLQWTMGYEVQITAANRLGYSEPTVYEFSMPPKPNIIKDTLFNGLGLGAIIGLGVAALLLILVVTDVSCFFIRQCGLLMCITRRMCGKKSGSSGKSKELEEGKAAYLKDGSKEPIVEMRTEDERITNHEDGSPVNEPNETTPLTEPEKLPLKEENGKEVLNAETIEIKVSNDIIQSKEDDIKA
Kind of assay: co-IP; eluates of the antibody-conjugated magnetic beads (as for the mass spectrometry) blotted for NCAM2; membrane fraction of postnatal mouse cortex.

No constants are given. Whether binding was seen depends on the method and setting. In cells and extracts the contact can be indirect. Binding can be weak; no strength is given.

As for “Neuronal cell adhesion molecule 2, isoform NCAM2.2 (mouse (endogenous in cerebral cortex))”, the binding result was “binds”.

The record behind these values is PMC8304497.
